# From the supplement of paper PMC8728848
# This is one part of the list.
# Legend:
# Assay in all cases: glycan array binding signal (z-score within array); higher = stronger binding
# Conditions in all cases: glycan notation: IUPAC condensed, linker removed
# [1] = molecular target: Fuc(a1-2)Gal
# How it was run: (§1)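 Glycan array data were curated from 3228 arrays in the Consortium for Functional Glycomics database and kept only where the protein sequence was available. Glycan names were converted to IUPAC-condensed notation, and columns mapping to the same glycan were averaged. The binding signal is a within-array Z-score, averaged across arrays of the same protein sequence at different concentrations or buffers and across linkers. Negative Z-scores can be read as non-binding.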
# [2] = molecular target: Fuc(a1-2)Gal(b1-3)GalNAc
# How it was run: as §1
# [3] = molecular target: Fuc(a1-2)Gal(b1-3)GalNAc(a1-3)[Fuc(a1-2)]Gal(b1-4)Glc
# How it was run: as §1
# [4] = molecular target: Fuc(a1-2)Gal(b1-3)GalNAc(a1-3)[Fuc(a1-2)]Gal(b1-4)GlcNAc
# How it was run: as §1
# [5] = molecular target: Fuc(a1-2)Gal(b1-3)GalNAc(b1-3)Gal
# How it was run: as §1
# [6] = molecular target: Fuc(a1-2)Gal(b1-3)GalNAc(b1-3)Gal(a1-4)Gal(b1-4)Glc
# How it was run: as §1
# [7] = molecular target: Fuc(a1-2)Gal(b1-3)GalNAc(b1-4)[Neu5Ac(a2-3)]Gal(b1-4)Glc
# How it was run: as §1
# [8] = molecular target: Fuc(a1-2)Gal(b1-3)GlcNAc
# How it was run: as §1
# [9] = molecular target: Fuc(a1-2)Gal(b1-3)GlcNAc(b1-2)Man(a1-3)[Fuc(a1-2)Gal(b1-3)GlcNAc(b1-2)Man(a1-6)]Man(b1-4)GlcNAc(b1-4)GlcNAc
# How it was run: as §1
# [10] = molecular target: Fuc(a1-2)Gal(b1-3)GlcNAc(b1-2)Man(a1-3)[Fuc(a1-2)Gal(b1-3)GlcNAc(b1-2)Man(a1-6)]Man(b1-4)GlcNAc(b1-4)[Fuc(a1-6)]GlcNAc
# How it was run: as §1
# [11] = molecular target: Fuc(a1-2)Gal(b1-3)GlcNAc(b1-3)Gal(b1-4)Glc
# How it was run: as §1
# [12] = molecular target: Fuc(a1-2)Gal(b1-3)GlcNAc(b1-3)GalNAc
# How it was run: as §1
# [13] = molecular target: Fuc(a1-2)Gal(b1-3)GlcNAc(b1-3)[Fuc(a1-2)Gal(b1-3)GlcNAc(b1-6)]GalNAc
# How it was run: as §1
# [14] = molecular target: Fuc(a1-2)Gal(b1-3)GlcNAc(b1-3)[Gal(b1-4)GlcNAc(b1-6)]Gal(b1-4)Glc
# How it was run: as §1
# [15] = molecular target: Fuc(a1-2)Gal(b1-3)GlcNAc(b1-3)[Neu5Ac(a2-6)Gal(b1-4)GlcNAc(b1-6)]Gal(b1-4)Glc
# How it was run: as §1
# [16] = molecular target: Fuc(a1-2)Gal(b1-3)GlcNAc6S
# How it was run: as §1
# [17] = molecular target: Fuc(a1-2)Gal(b1-3)[Fuc(a1-4)]GlcNAc
# How it was run: as §1
# [18] = molecular target: Fuc(a1-2)Gal(b1-3)[Fuc(a1-4)]GlcNAc(b1-2)Man(a1-3)[Fuc(a1-2)Gal(b1-3)[Fuc(a1-4)]GlcNAc(b1-2)Man(a1-3)]Man(b1-4)GlcNAc(b1-4)GlcNAc
# How it was run: as §1
# [19] = molecular target: Fuc(a1-2)Gal(b1-3)[Fuc(a1-4)]GlcNAc(b1-2)Man(a1-3)[Fuc(a1-2)Gal(b1-3)[Fuc(a1-4)]GlcNAc(b1-2)Man(a1-6)]Man(b1-4)GlcNAc(b1-4)[Fuc(a1-6)]GlcNAc(b1-4)[Fuc(a1-6)]GlcNAc
# How it was run: as §1
# [20] = molecular target: Fuc(a1-2)Gal(b1-3)[Fuc(a1-4)]GlcNAc(b1-3)[Fuc(a1-3)[Gal(b1-4)]GlcNAc(b1-6)]Gal(b1-4)Glc
# How it was run: as §1
# [21] = molecular target: Fuc(a1-2)Gal(b1-3)[Fuc(a1-4)]GlcNAc(b1-3)[Gal(b1-4)GlcNAc(b1-6)]Gal(b1-4)Glc
# How it was run: as §1
# [22] = molecular target: Fuc(a1-2)Gal(b1-4)Fuc(a1-3)]GlcNAc(b1-2)Man(a1-3)[Fuc(a1-2)Gal(b1-4)[Fuc(a1-3)]GlcNAc(b1-2)Man(a1-6)]Man(b1-4)GlcNAc(b1-4)GlcNAc
# How it was run: as §1
# [23] = molecular target: Fuc(a1-2)Gal(b1-4)Glc
# How it was run: as §1
# [24] = molecular target: Fuc(a1-2)Gal(b1-4)Glc6S
# How it was run: as §1
# [25] = molecular target: Fuc(a1-2)Gal(b1-4)GlcNAc
# How it was run: as §1
# [26] = molecular target: Fuc(a1-2)Gal(b1-4)GlcNAc(b1-2)Man
# How it was run: as §1
# [27] = molecular target: Fuc(a1-2)Gal(b1-4)GlcNAc(b1-2)Man(a1-3)[Fuc(a1-2)Gal(b1-4)GlcNAc(b1-2)Man(a1-6)]Man(b1-4)GlcNAc(b1-4)GlcNAc
# How it was run: as §1
# [28] = molecular target: Fuc(a1-2)Gal(b1-4)GlcNAc(b1-2)Man(a1-3)[Fuc(a1-2)Gal(b1-4)GlcNAc(b1-2)Man(a1-6)]Man(b1-4)GlcNAc(b1-4)[Fuc(a1-6)]GlcNAc
# How it was run: as §1
# [29] = molecular target: Fuc(a1-2)Gal(b1-4)GlcNAc(b1-2)[Fuc(a1-2)Gal(b1-4)GlcNAc(b1-4)]Man(a1-3)[Fuc(a1-2)Gal(b1-4)GlcNAc(b1-2)Man(a1-6)]Man(b1-4)GlcNAc(b1-4)GlcNAc
# How it was run: as §1
# [30] = molecular target: Fuc(a1-2)Gal(b1-4)GlcNAc(b1-3)Gal(b1-4)GlcNAc
# How it was run: as §1
binder,measurement,setting,value
SP15308C-bot-338-23-338 (Bacteroides ovatus) (protein) DEWTDEQFKQLISFKTQPGGWGVTDVHVRYANSAKYTYNLPVLVSGSTDNTDDRLVSFSLRDDTLDILNFEKFGNRPELYFRELPQKYYSFPKELTIPAGQSHALLPIEFSLDGLDDSQKWALPLKVCEDANGTYAVNPRKYYRTAVLRPILFNEFSGRFSGSSLLGTMAGESDIKFSSTEIKLNVVTDSIVFFYAGQRTEDYEDRINYKVFLQFTGDKVDSKKDLYKMKIWAENEKLKFNSYSTPTYKVSSEMDATKTYLKHTYIVISDIDFDFVDYTSVPNYEIEYNMKGGLSVSRDLDTRKPDEDQGSDSKWW,glycan array binding signal (z-score),[1],-0.164
same,glycan array binding signal (z-score),[2],-0.082
same,glycan array binding signal (z-score),[3],-0.56
same,glycan array binding signal (z-score),[4],-0.687
same,glycan array binding signal (z-score),[5],0.077
same,glycan array binding signal (z-score),[6],-0.001
same,glycan array binding signal (z-score),[7],-0.142
same,glycan array binding signal (z-score),[8],-0.068
same,glycan array binding signal (z-score),[9],2.27
same,glycan array binding signal (z-score),[10],-0.142
same,glycan array binding signal (z-score),[11],-0.549
same,glycan array binding signal (z-score),[12],-0.215
same,glycan array binding signal (z-score),[13],-0.067
same,glycan array binding signal (z-score),[14],-0.06
same,glycan array binding signal (z-score),[15],-0.409
same,glycan array binding signal (z-score),[16],-0.357
same,glycan array binding signal (z-score),[17],-0.43
same,glycan array binding signal (z-score),[18],-0.066
same,glycan array binding signal (z-score),[19],0.022
same,glycan array binding signal (z-score),[20],0.338
same,glycan array binding signal (z-score),[21],-0.476
same,glycan array binding signal (z-score),[22],0.689
same,glycan array binding signal (z-score),[23],0.084
same,glycan array binding signal (z-score),[24],-0.339
same,glycan array binding signal (z-score),[25],-0.869
same,glycan array binding signal (z-score),[26],-0.503
same,glycan array binding signal (z-score),[27],0.539
same,glycan array binding signal (z-score),[28],-0.069
same,glycan array binding signal (z-score),[29],-0.436
same,glycan array binding signal (z-score),[30],-0.778

# Eight neighbouring records from above:
binder,measurement,setting,value
SP15308C-bot-338-23-338 (Bacteroides ovatus) (protein) DEWTDEQFKQLISFKTQPGGWGVTDVHVRYANSAKYTYNLPVLVSGSTDNTDDRLVSFSLRDDTLDILNFEKFGNRPELYFRELPQKYYSFPKELTIPAGQSHALLPIEFSLDGLDDSQKWALPLKVCEDANGTYAVNPRKYYRTAVLRPILFNEFSGRFSGSSLLGTMAGESDIKFSSTEIKLNVVTDSIVFFYAGQRTEDYEDRINYKVFLQFTGDKVDSKKDLYKMKIWAENEKLKFNSYSTPTYKVSSEMDATKTYLKHTYIVISDIDFDFVDYTSVPNYEIEYNMKGGLSVSRDLDTRKPDEDQGSDSKWW,glycan array binding signal (z-score),[4],-0.687
same,glycan array binding signal (z-score),[5],0.077
same,glycan array binding signal (z-score),[6],-0.001
same,glycan array binding signal (z-score),[7],-0.142
same,glycan array binding signal (z-score),[8],-0.068
same,glycan array binding signal (z-score),[9],2.27
same,glycan array binding signal (z-score),[10],-0.142
same,glycan array binding signal (z-score),[11],-0.549
